Assay results from doi:10.1101/2024.11.12.621593.
Where two headings read alike, the source gives them in different places. These are yes or no findings as the source states them, for the method shown. Binding seen in cells or lysates may run through a third protein. These calls come from enrichment with a bait or labelling near it, and not all partners need be listed.

Chains of the proteins cited; added tags and fusions are not shown.
UniProt Q92547: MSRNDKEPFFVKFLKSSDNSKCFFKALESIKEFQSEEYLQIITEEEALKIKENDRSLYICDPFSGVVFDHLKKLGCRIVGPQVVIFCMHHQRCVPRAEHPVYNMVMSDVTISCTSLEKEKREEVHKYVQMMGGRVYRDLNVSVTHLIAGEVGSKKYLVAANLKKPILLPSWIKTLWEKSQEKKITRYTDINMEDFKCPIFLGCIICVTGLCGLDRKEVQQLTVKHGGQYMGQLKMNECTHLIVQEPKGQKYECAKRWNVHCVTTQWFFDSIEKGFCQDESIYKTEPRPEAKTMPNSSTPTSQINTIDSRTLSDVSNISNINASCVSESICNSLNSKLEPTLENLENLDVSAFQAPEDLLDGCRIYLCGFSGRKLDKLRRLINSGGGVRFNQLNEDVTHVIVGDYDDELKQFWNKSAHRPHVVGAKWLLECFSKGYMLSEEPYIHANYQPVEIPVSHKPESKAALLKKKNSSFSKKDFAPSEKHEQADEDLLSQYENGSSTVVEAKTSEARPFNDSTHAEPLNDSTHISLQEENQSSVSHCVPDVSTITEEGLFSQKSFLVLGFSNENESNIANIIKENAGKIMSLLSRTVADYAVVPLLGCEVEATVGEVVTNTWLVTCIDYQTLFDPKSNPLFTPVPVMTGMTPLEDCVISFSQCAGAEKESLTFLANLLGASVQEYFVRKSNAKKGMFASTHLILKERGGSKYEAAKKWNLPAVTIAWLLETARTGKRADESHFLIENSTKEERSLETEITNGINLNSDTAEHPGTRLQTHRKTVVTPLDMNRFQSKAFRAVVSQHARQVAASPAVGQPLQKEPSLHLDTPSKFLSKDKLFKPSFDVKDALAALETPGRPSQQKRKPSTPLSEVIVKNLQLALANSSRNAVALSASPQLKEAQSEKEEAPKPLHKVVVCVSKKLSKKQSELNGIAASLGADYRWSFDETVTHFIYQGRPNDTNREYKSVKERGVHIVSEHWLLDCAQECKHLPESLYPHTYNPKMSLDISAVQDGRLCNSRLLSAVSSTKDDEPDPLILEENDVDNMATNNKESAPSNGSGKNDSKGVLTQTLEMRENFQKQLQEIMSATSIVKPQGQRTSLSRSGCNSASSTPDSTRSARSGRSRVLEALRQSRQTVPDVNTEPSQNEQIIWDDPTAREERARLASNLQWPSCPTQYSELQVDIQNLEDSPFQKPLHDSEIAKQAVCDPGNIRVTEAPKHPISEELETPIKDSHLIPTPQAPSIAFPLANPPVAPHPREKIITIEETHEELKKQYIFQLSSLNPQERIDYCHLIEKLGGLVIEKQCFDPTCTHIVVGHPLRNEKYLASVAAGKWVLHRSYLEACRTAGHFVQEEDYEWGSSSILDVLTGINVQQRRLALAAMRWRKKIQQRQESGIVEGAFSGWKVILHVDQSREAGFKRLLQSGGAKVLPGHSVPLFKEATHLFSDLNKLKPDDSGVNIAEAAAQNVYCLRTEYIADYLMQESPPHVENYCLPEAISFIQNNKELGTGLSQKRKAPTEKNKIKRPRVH
UniProt Q5VYV7: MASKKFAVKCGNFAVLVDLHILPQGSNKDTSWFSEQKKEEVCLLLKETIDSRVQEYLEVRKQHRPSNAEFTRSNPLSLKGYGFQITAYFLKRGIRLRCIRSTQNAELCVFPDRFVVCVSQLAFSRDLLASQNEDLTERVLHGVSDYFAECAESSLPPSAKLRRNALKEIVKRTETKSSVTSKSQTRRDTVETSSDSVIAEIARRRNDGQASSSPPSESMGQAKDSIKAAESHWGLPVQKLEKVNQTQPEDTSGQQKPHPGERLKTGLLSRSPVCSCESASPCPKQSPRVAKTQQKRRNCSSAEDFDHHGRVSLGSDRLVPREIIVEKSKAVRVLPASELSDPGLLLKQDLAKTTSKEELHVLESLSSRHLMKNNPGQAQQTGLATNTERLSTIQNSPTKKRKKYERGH
UniProt Q8IY92: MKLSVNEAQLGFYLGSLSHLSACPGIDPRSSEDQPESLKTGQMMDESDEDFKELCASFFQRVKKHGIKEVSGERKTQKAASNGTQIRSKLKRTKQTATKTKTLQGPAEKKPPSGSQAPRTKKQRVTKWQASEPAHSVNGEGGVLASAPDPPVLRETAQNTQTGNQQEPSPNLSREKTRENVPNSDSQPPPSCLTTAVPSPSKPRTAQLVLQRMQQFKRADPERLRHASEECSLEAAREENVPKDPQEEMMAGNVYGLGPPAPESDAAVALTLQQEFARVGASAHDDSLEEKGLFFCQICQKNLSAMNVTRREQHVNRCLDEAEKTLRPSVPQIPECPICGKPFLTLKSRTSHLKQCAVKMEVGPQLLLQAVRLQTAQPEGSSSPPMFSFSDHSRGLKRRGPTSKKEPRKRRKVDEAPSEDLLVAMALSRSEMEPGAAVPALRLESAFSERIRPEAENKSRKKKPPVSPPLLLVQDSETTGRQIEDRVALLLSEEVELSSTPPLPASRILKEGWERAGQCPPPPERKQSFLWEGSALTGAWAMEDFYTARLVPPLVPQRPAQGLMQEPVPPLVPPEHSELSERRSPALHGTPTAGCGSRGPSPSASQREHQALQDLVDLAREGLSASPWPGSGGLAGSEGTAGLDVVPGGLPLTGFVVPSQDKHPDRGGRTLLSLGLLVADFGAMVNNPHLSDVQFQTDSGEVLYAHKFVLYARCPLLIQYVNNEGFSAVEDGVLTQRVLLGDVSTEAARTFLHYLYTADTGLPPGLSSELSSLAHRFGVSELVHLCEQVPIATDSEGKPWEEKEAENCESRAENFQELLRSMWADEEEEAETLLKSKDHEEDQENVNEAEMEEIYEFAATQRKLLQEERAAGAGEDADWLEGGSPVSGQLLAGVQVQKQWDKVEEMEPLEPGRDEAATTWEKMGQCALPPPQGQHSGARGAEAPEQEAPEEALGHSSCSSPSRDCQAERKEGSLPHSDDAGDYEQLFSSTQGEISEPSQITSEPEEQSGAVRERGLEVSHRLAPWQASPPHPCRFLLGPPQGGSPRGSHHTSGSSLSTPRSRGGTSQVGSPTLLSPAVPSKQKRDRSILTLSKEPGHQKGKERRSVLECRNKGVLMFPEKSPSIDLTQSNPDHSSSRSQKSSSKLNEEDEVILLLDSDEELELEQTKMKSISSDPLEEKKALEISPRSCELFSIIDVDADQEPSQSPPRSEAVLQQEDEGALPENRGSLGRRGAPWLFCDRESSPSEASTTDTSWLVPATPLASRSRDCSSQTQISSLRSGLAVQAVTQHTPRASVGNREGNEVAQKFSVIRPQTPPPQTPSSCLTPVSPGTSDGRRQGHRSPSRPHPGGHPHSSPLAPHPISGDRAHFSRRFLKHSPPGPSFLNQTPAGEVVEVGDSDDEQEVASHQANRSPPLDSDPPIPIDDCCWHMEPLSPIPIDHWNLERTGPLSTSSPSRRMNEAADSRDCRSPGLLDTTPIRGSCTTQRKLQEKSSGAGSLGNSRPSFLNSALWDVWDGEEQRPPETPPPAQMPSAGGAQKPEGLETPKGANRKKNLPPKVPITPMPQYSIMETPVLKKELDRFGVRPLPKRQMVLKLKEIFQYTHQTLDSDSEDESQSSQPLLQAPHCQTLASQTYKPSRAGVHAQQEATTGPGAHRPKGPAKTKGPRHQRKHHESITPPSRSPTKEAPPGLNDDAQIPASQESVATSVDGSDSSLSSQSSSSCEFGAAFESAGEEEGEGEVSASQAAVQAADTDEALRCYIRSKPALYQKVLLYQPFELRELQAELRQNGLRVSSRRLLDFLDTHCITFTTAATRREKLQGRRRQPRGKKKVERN

Columns and labels:
[1] = molecular target: TOPBP1 (endogenous) (human (endogenous in HEK293TN)) (UniProt Q92547); assay: affinity purification with mass spectrometry
[2] = molecular target: TOPBP1 (endogenous) (human (endogenous in HEK293TN)) (UniProt Q92547); assay: affinity purification with mass spectrometry; remark: listed apart in the source

Row | Substance | binding [1] | binding [2]
1 | SLX4IP (endogenous) (from UniProt Q5VYV7 1-408) | binds | 
2 | SLX4 (endogenous) (from UniProt Q8IY92 1-1834) | binds | binds
